# Experimental data as given in ChEMBL document CHEMBL4007425, “Drug Repurposing of Histone Deacetylase Inhibitors That Alleviate Neutrophilic Inflammation in Acute Lung Injury and Idiopathic Pulmonary Fibrosis via Inhibiting Leukotriene A4 Hydrolase and Blocking LTB4 Biosynthesis” (J Med Chem, 2017).
# Calls of active or inactive are those of the source. The calls are words filed in the database; no cut-off is given here.
# What was measured:
# [1] = target: T1, Leukotriene A-4 hydrolase (Mus musculus) (UniProt P24527); assay: Inhibition of LTA4H epoxide hydrolase in C57BL/6 mouse neutrophils assessed as suppression of fMLP-induced neutrophil migration co-treated with ((2S,3R)-3-amino-2-hydroxy-4-phenylbutanamido)-4-methylpentanoic acid for 30 mins followed by stimulation with fMLP for 1 hr by chemotaxis assay
# T1 sequence (whole entry): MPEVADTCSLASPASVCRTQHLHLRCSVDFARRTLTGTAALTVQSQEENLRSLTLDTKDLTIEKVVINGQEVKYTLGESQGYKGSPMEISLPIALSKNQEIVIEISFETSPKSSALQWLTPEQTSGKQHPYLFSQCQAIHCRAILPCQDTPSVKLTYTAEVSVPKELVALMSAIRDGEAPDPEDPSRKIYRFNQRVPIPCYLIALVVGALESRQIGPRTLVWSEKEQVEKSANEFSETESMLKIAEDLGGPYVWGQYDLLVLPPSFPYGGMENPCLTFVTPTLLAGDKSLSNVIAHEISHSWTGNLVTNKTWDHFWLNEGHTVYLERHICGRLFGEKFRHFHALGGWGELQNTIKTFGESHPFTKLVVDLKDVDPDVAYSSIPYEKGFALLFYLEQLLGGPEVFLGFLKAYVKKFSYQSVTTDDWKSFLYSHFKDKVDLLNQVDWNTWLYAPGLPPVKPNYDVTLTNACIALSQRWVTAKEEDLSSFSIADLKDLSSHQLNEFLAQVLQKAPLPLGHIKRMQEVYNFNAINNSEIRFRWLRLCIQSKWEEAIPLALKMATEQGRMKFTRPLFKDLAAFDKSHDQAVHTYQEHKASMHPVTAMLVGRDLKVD
# Mus musculus = species on record: Mus musculus; settings: C57BL/6, at 25 mg/kg
# [2] = target: T2, Leukotriene A-4 hydrolase (LTA4H) aminopeptidase activity (Homo sapiens, UniProt P09960); assay: Inhibition of recombinant human LTA4H aminopeptidase activity expressed in Escherichia coli BL21 (DE3) pLysS assessed as formation of p-NA from Ala-p-NA at 10 uM preincubated for 10 mins followed by substrate addition measured after 10 mins; settings: probe Ala-p-NA
# T2 sequence (P09960 whole entry): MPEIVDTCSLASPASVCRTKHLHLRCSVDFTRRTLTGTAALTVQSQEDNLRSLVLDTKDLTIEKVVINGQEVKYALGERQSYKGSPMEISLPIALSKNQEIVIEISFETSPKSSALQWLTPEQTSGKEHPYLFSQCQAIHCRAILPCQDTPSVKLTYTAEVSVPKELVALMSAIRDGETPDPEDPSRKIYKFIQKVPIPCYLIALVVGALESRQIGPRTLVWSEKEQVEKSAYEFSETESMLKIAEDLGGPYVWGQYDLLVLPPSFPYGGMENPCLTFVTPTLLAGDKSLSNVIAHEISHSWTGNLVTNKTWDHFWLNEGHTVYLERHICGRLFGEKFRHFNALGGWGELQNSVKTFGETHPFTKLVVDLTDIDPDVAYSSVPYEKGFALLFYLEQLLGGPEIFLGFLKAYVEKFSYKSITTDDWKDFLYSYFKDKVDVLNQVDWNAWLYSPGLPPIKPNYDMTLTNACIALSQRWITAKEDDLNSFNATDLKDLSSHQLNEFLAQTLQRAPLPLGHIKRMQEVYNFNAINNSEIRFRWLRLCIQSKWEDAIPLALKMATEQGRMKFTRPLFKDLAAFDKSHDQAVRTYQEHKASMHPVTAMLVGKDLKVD
# [3] = target: T3, Leukotriene A-4 hydrolase (Homo sapiens) (UniProt P09960); settings: at 10 µM
# T3 sequence (whole entry): T2 sequence (P09960 whole entry)
smiles,measurement,setting,value
Cc1ccc(C(=O)NCCCCCC(=O)Nc2ccccc2N)cc1,inhibition,[1],Active
same,inhibition,Mus musculus,Active
same,"inhibition at 10 min, 10 µM",[2],> 50%
same,inhibition,[3],> 50%
